Results of single-concentration screens

Chains of the proteins cited; added tags and fusions are not shown. Residues count along the entry.
UniProt Q8IDJ8, 1-583: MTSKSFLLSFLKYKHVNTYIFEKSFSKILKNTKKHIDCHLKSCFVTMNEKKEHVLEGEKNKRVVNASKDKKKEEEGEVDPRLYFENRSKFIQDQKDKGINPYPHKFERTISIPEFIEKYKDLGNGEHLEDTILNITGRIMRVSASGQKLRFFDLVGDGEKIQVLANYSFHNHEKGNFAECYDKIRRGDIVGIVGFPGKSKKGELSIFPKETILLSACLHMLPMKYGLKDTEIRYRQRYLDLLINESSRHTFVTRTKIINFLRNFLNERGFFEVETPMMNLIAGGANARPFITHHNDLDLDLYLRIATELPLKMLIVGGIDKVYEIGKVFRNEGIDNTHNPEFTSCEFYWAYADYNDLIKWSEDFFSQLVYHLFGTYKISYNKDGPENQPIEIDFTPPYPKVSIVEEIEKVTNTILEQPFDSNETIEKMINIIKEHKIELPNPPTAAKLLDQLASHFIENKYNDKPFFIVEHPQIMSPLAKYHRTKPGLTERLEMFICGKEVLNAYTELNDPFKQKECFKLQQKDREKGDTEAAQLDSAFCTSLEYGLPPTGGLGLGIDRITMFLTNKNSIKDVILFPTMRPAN
UniProt Q4DA54, 1-478: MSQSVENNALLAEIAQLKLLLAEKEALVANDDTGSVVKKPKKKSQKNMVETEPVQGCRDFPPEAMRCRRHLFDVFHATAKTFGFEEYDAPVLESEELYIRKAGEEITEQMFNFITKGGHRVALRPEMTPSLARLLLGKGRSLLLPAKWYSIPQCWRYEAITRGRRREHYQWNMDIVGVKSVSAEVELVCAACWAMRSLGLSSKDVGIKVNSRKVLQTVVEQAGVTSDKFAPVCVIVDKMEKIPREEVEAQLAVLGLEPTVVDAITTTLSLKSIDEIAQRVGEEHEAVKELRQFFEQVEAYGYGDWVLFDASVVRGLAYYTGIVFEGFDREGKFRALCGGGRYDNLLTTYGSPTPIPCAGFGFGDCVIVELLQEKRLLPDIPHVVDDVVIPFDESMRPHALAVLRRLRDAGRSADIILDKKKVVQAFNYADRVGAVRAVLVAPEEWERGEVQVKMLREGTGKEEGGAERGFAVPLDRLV

From ChEMBL document CHEMBL3988442, “University of Dundee, Small-Polar-MMV Screening Library” (2021).

Leishmania in macrophages: 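Cell assay of Leishmania donovani living inside macrophages; the read-out is not stated. Compounds at 30 µM. The record gives no direction; compounds that gave an IC50 in retests scored well above the rest, so higher reads as stronger inhibition. Size under these conditions: about 69,000 compounds, about 1,000 of them at 50% or above in at least one test.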
T. brucei: 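Whole-parasite assay of Trypanosoma brucei over 72 hours; the read-out is not stated. Compounds at 30 µM. Direction is inferred from retests: higher values go with stronger inhibition. Values scatter widely below zero; nearly all retest evidence comes from the higher of the two concentrations used. About 64,000 compounds were tested under these conditions; 1.5% (about 940) showed 50% or more at least once.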
Toxoplasma: 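Assay of Toxoplasma gondii numbers, read through their beta-galactosidase reporter with a colour substrate. Compounds at 10 µM. The record gives no direction; the compounds picked for IC50 retests had high values, so higher reads as fewer parasites. About 67,000 compounds were tested under these conditions; 0.38% (about 260) showed 50% or more at least once.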
PfKRS1: 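Enzyme assay of the cytosolic lysyl-tRNA synthetase in 384-well plates, read by luminescence. Target: Lysine-tRNA ligase, Plasmodium falciparum 3D7 (UniProt Q8IDJ8). Tested at 30 µM. Higher reads as stronger inhibition, judged from the few compounds that gave an IC50. Of about 69,000 compounds tested this way, about 49 (0.071%) reached 50% or more in at least one test.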
TcHisRS: 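Enzyme assay of histidyl-tRNA synthetase; the read-out is not stated. Target: Histidine-tRNA ligase, Trypanosoma cruzi CL Brener (UniProt Q4DA54). Concentration: 30 µM. The record gives no direction; compounds that gave an IC50 in retests scored well above the rest, so higher reads as stronger inhibition. About 69,000 compounds were tested under these conditions; 0.045% (about 31) showed 50% or more at least once.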

The filed quantity is “Percent Effect” (%).
The record does not define 0% and 100%; most values in the screen are far below 50% and negative numbers occur (in some assays of this library far below -100).
This is an unselected part of the compounds tested.
Two or more numbers in one place are separate tests of the same structure; such repeats can differ widely.
A dash means the value is not listed here; it may have been measured.

structure	Leishmania in macrophages	T. brucei	Toxoplasma	PfKRS1	TcHisRS
COc1ccc(C(=O)Nc2nncs2)cn1	-2.925	-117.7	-1.618	-3.619	8.28
O=C(O)C1(Oc2ccc3ccccc3c2)CCN(c2ccncc2)CC1	-59.75	-38.24	-15.73	3.076	8.543
Cc1ccc(OCCN2CCC(c3ccnn3CCO)CC2)cc1	8.233	-19.29	3.649	1.045	2.89
Cc1n[nH]c(C)c1CCN(C)C(=O)c1ccc(CN2CCCCC2)cc1	-19.46	-15.23	-1.057	-3.703	9.524
CC[C@@H]1N(Cc2ccc(C)o2)CCC[C@]12CCC(=O)N2CCOC	-	-	-	-1.667	3.738
CC(C)OCc1ncn2c1CN(Cc1ccoc1)CCC2.O=C(O)C(F)(F)F	25.98	-20.48	15.27	-	-
CCc1nccn1CC1CCCN1S(=O)(=O)Cc1ccccc1 (centres unmarked)	24.26	16.09	-26.97	1.603	3.458
COCC1CN(c2ccc(C)nn2)Cc2cnn(C)c21.O=C(O)C(F)(F)F.O=C(O)C(F)(F)F (centres unmarked)	1.62	-42.59	10.54	-	-
COc1ccsc1C(=O)N1CCCN(Cc2cscn2)CC1	32.66	-	8.556	1.179	13.7
FC(F)(F)Cn1ccnc1CN1CCOC(Cn2cccn2)C1 (centres unmarked)	-3.167	28.8	-1.181	1.645	0.3759
CCn1ncc2c1C(COCC1CC1)N(Cc1ccccn1)CC2 (centres unmarked)	-	-	-	-2.728	12.3
CC(=O)NC[C@]1(O)CCN(C(=O)c2ccc(C)c(F)c2)C[C@H]1O	8.665 & -2.67	-4.576	-8.532	3.189	7.692
O=C(CCc1nccs1)N1CCCC(n2ccnc2)C1 (centres unmarked)	17.54	10.34	1.355	-0.2758	0.5634
CC(C)SCC(=O)N1CCCn2nc(C(=O)Nc3ccccc3)cc2C1	23.18	7.21	10.66	-3.215	6.186
Cc1noc(C)c1C(=O)N1CCCC1c1c(C)nn(C)c1Cl (centres unmarked)	-8.013	0.535	-	3.117	4.511
COCC(=O)N1CCCC(C(=O)N(C)CCn2ccnc2C)C1 (centres unmarked)	-6.045	5.354	-31.69	-2.193	-0.8
Cc1nccn1C1CCCN(C(=O)c2cccc3c2OCO3)C1 (centres unmarked)	26.11	12.02	-17.28	-3.375	8.309
CC(=O)c1ccc(NC(=O)c2ccc3c(c2)C2(CCCCC2)CN3)cc1	-	-	-	1.038	0
Cc1nc(C)n(CC2CCCCN2CCC(=O)Nc2cc(C)on2)n1 (centres unmarked)	43.03	20.46	-3.093	2.492	4.135
[H][C@@]12CCC[C@@H](OCc3cccnc3)[C@]1([H])CN(Cc1cnn(C)c1)C2	8.816	-32.82	0.8615	-	-
CNC(=O)CN(C)c1nc(-c2ccncc2)nc2c1CCN(C(C)=O)C2	-14.45	-9.083	-7.537	2.042	-0.8264
Cc1nn(-c2ccc(C(=O)O)cc2)c2c1C(CC(C)C)SCC(=O)N2 (centres unmarked)	8.159	-	-7.328	4.476	6.25
Cc1noc([C@H]2COC[C@H]3CN(C(=O)Cc4cccs4)C[C@H]32)n1	-	-	-	2.046	4.878
O=C(Nc1ccc2c(c1)OCCO2)N1CCCC1c1ccco1 (centres unmarked)	28.32	0.2598	14.02	4.137	6.931
Cc1cc(C2CCCN2CCCS(=O)(=O)c2ccccc2)no1 (centres unmarked)	15.63	6.418	5.338	2.11	5.344
O=C(O)c1cc(-c2cccs2)nc2c(Br)cnn12	24.89	-23.92	13.3	0.5602	9.249
Cc1nc(-c2ccccc2)ccc1C(=O)N1CCN(CCO)CC1	-10.48	18.55	2.263	1.495	3.911
CCc1[nH]c2c(CNc3cc(C)nc(NC)n3)cc(C)cc2c1C	71.01	-51.64	10.92	-2.021	12.65
O=C(Cc1n[nH]c2ccccc12)N1CCCCC1Cn1cccn1 (centres unmarked)	5.982	4.094	3.314	0.1125	0.5764
Cc1nc(-c2cccc(N3CCC(N4CCCC4)CC3)c2)cs1	28.04	-13.34	2.523	-6.794	7.595
CC(=O)c1ccc(N2CCN(C(=O)NCc3cc[nH]n3)CC2)cc1	11.71	-13.76	-34.94	0.9387	5.202
Cc1cnn(CC2CCCCN2C(=O)c2sccc2C#N)c1 (centres unmarked)	-3.338	-19.23	-10.9	5.416	4.865
Cc1nc(CN2CCCC(N(C)CCCc3ccccc3)C2)no1 (centres unmarked)	18.8	-9.572	11.52	1.661	6.433
Cn1cnc2c1CCN(CCCc1ccccc1)C2	-16.06	-18.53	-1.331	0.969	-0.3774
COCc1noc(-c2ccc(N(C)Cc3nccs3)nc2)n1	15.11	-10.83	4.461	2.267	2.513
CC(C)(C)CN1CCN2C(=O)N(C3CCCCC3)C[C@H]2C1	-	-	-	4.83	0.4975
Cc1cc(OCC(=O)NS(=O)(=O)c2c(C)noc2C)ccc1Cl	-4.236	-24.41	4.436	2.719	-0.7634
CN1C[C@@H](n2cnc(-c3ccccc3)c2-c2c[nH]cn2)C[C@H]1C(=O)O	34.86	-32.08	1.81	-0.1017	9.091
Cc1cccc(N(CC(=O)N2CCCCC2)Cc2ccno2)c1	5.815	-1.359	-5.746	4.056	7.263
Cc1cc2c(cc1Cl)C=CC1(CCN(CC(=O)N3CCCC3)CC1)O2	8.746	-16.81	-11.32	-0.7497	9.429
COCCN1CCc2cc(C(=O)N(C)C)c(NC(C)C)nc2CC1	-	-	-	6.102	3.39
O=C(c1cc[nH]n1)N1CCCC1c1ccccn1 (centres unmarked)	15.12	12.19	7.832	2.142	6.084
Cc1ncsc1-c1nnc(C2CCN(Cc3ccccc3Cl)CC2)o1	23.07 & -0.5609	10.25	5.889	1.567	2.198
CC(C)n1[nH]c(=O)c2c1NC(=O)CSC2C1CCCCC1 (centres unmarked)	24.54	-9.593	6.276	5.506	1.463
Cl.c1ccc(-c2ccc(C3CNCCO3)nc2)cc1 (centres unmarked)	21.61	-8.657	-6.471	-	-
Cc1nnc(C(C)N2CCc3[nH]c4ccccc4c3C2)o1 (centres unmarked)	19.29	-20.78	24.82	5.014	18
Cc1cc(C(=O)NCc2ccc(-c3n[nH]cc3C(=O)N(C)C)cc2)on1	24.45	0.2029	10	2.847	8.812
CCc1nc(C2CCCN2C(=O)c2cc3c(s2)CCC3)no1 (centres unmarked)	15.97	-22.65	7.307	0.9359	7.602
O=C(O)C(F)(F)F.O=C(O)C(F)(F)F.[H][C@]12C[C@@H](CN3CCCC3)N(C)[C@@]1([H])CCN(C(=O)c1cnoc1C)C2	25.5	-7.379	-7.908	-	-
CCc1c(C)nn(CC(=O)NC(C)c2n[nH]c(C)n2)c1C (centres unmarked)	8.581	-40.38	-20.86	8.702	9.639
O=C(c1ccoc1)N1CCc2c(COCc3ccncc3)cncc2C1	-10.19	-61.02	-3.892	8.594	-0.4975
Cc1nn(C)c2ncc(NC(=O)N(C)Cc3cnn(C)c3)cc12	38.8	-21.56	-0.5618	6.636	4.813
Cc1ccc(C)c(C(=O)NC2CCC(N3C(=O)CCC3=O)CC2)c1 (centres unmarked)	14.72	-53.42	0.1155	2.347	9.189
Cc1ccc(-c2ncc(C(=O)N3CCCC(CCN)C3)c(O)n2)cc1 (centres unmarked)	14.75	-83.76	-5.593	4.251	11.45
Cc1nc(C)c(CNC(=O)NC(c2nnc3n2CCC3)C(C)C)s1 (centres unmarked)	14.66	38.92	-7.712	13.16	4.813
O=C(CN1CCCC1)N1CCCC(c2cc(=O)n3c(n2)CCCCC3)C1 (centres unmarked)	1.721 & 10.65	-23.18	17.43	0.6989	0
OCC1(O)CCCN(Cc2noc(-c3ccccc3)n2)CC1 (centres unmarked)	6.254	-14.58	-26.47	1.164	3.483
CNS(=O)(=O)c1cccc(C(C)NCc2ccco2)c1 (centres unmarked)	14.14	-28.52	-3.055	8.63	-1.724
CCCC(=O)Nc1cccc(C(=O)N(C)CCCC2CCCO2)c1 (centres unmarked)	22.51	-5.405	-2.89	-8.267	5.217
Cc1ncsc1CN1C[C@H](C(=O)NCC2CC2)[C@@H]2CCO[C@@H]2C1	-	-	-	3.081	2.632
COc1cc(NC(=O)Cn2ccc3sc(C)cc3c2=O)cc(OC)c1	13.4	11.45	-0.6652	4.612	-7.609
O=C(O)C(F)(F)F.O=C(c1ccccc1F)N1CCC2(CC1)CC(Oc1ccccn1)CO2 (centres unmarked)	37.19	-93.29	-15.01	-	-